Reference: paper PMC3414764
These are yes or no findings as the source states them, for the method shown. In cells and extracts the contact can be indirect. Some results given as binding are weak or reduced against the parent protein; the word gives no strength.

Sequences of proteins named here, by UniProt entry; tags and fusion partners are left off.
UniProt P28033: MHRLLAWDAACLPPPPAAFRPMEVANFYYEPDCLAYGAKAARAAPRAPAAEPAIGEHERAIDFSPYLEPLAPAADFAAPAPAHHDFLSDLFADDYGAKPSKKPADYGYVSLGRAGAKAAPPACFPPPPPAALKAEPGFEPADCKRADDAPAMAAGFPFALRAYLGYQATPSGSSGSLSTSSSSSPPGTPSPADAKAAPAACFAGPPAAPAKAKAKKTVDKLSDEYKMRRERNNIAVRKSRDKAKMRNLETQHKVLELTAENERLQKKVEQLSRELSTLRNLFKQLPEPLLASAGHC
UniProt O09106: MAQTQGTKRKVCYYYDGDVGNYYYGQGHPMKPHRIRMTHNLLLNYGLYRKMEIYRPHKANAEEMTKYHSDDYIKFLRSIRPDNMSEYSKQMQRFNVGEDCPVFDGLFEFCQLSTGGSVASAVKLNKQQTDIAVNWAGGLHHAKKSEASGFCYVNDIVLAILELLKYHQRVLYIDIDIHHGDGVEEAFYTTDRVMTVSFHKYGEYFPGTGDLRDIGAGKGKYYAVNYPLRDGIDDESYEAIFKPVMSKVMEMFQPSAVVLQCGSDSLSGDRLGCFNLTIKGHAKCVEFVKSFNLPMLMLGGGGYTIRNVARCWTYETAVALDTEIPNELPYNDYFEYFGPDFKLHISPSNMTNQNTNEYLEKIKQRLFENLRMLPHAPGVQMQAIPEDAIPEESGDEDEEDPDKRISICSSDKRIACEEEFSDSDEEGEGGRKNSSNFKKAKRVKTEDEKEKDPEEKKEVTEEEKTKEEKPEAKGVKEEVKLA

Target: CCAAT/enhancer binding protein β (mouse (endogenous in primary mixed glial cultures)) (UniProt P28033)
Experiment: co-IP; anti-C/EBPβ (polyclonal rabbit) on Dynabeads protein A; 200 μg protein from chromatin extracts of control and LPS-treated (six hours) primary mixed glial cultures, overnight at 4°C; washed with PBS; blot with anti-HDAC1 and anti-C/EBPβ; rabbit IgG and unlabeled beads as negative controls

binding: binds
Substance: histone deacetylase 1 (from UniProt O09106 1-482) (enzyme)
